From the supplement of paper PMC10338343
± gives the standard deviation. The list shows a part of the results. The uncertainty is large for many entries.

What follows are sequences tested on EfPiwi piRISC loaded with L1MC piRNA (26 nt) (assay: pre-steady-state target cleavage rate (min^-1); guide: L1MC piRNA 5'p-UAACUAAAUACUAUGCAAGCUGUAGG; MIWI and MILI are mouse PIWI proteins and EfPiwi is from a freshwater sponge; tags in brackets are library labels; higher = faster piRNA-guided slicing of the target). Settings: auxiliary factor: 500 nM Ephydatia muelleri Gtsf1.
Outline: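 Cleave-'n-Seq: 1 nM active affinity-purified piRISC with one synthetic guide and 0.1 nM transcribed, DNA-blocked target RNA library were mixed, with or without 500 nM GTSF1 partner protein, in HEPES–potassium acetate buffer at 33 °C for 0–8 or 0–960 min. Uncleaved targets were sequenced and normalised to depth and to weakly complementary targets, three trials were pooled, and k3 was capped at 0.0001 min^-1. The pre-steady-state cleavage rate was fitted […].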

Sequence | pre-steady-state target cleavage rate
UCCUCCUACAGCGUGCAUAGUAUUUAGUUA | 0.1 ± 0.026
UCCUGGAUGUCGUUCGCAUAGUAUUUAGUUA | 0.00486 ± 0.0031
UCCUGGUACAGCUUGCUUAGUAAUUAGUUA | 0.00675 ± 0.0033
UCCUGCUUGUGCUUGCAUAGUAUUUAGUUA | 0.00618 ± 0.0027
UCCUCCAUCAGCUUGCAUAGUAUUUAGUAA | 0.00678 ± 0.003
UCCUGGAUGAGCUUGCAUAGUAUUUGGUUA | 0.00713 ± 0.002
UCCUCCAACAGCUUGCAUAGUAUUUAGAUA | 0.0051 ± 0.0023
UCCUGGAUGUCCUUGCAUAGUAGUUAGUUA | 0.00555 ± 0.0031
UCCUGGUACAGCUUGCAAAGAAUUUAGUUA | 0.00126 ± 0.0046
UCCUGGAACAGCAUGCAUAGUAUAUAGUUA | 0.0106 ± 0.005
UCCUGGAUCAGCUAGCAUAGUAUUUAGUAA | 0.00362 ± 0.0032
UCCUGGAUGUGCUUGCAUAGUAUUUCGUUA | 0.00179 ± 0.0018

2 entries from above, as labelled records.
UCCUGGAACAGCAUGCAUAGUAUAUAGUUA
  pre-steady-state target cleavage rate = 0.0106 ± 0.005
UCCUGGAUCAGCUAGCAUAGUAUUUAGUAA
  pre-steady-state target cleavage rate = 0.00362 ± 0.0032

Same assay, conditions: auxiliary factor: none (no Gtsf1)

Sequence | pre-steady-state target cleavage rate
UCCUGGAUGUCGUUGCAUAGAAUUUAGUAA | 0.000251 ± 0.025
UCCUGGUUGAGCUUGCAUAGUAUUUAGUUA | 0.000331 ± 0.061
UCCUGCUACAGCUUGGAUAGAAUUUAGUUA | 0.00103 ± 0.0089
UCCUGCUACAGGUUGCAUAGUAUUUUGUUA | 0.000559 ± 0.022
